From the supplement of paper PMC10849652
The other results are listed elsewhere or left out.

Protein sequences, listed by entry. Tags and fused reporters are not part of them. Lines headed by an entry give the natural chain unless they say otherwise; changes in a name come on top.
UniProt P05387, whole entry, looked up: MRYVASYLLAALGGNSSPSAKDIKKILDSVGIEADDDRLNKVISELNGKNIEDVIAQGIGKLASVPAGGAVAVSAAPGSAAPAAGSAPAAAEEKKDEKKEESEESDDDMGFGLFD
UniProt Q92766: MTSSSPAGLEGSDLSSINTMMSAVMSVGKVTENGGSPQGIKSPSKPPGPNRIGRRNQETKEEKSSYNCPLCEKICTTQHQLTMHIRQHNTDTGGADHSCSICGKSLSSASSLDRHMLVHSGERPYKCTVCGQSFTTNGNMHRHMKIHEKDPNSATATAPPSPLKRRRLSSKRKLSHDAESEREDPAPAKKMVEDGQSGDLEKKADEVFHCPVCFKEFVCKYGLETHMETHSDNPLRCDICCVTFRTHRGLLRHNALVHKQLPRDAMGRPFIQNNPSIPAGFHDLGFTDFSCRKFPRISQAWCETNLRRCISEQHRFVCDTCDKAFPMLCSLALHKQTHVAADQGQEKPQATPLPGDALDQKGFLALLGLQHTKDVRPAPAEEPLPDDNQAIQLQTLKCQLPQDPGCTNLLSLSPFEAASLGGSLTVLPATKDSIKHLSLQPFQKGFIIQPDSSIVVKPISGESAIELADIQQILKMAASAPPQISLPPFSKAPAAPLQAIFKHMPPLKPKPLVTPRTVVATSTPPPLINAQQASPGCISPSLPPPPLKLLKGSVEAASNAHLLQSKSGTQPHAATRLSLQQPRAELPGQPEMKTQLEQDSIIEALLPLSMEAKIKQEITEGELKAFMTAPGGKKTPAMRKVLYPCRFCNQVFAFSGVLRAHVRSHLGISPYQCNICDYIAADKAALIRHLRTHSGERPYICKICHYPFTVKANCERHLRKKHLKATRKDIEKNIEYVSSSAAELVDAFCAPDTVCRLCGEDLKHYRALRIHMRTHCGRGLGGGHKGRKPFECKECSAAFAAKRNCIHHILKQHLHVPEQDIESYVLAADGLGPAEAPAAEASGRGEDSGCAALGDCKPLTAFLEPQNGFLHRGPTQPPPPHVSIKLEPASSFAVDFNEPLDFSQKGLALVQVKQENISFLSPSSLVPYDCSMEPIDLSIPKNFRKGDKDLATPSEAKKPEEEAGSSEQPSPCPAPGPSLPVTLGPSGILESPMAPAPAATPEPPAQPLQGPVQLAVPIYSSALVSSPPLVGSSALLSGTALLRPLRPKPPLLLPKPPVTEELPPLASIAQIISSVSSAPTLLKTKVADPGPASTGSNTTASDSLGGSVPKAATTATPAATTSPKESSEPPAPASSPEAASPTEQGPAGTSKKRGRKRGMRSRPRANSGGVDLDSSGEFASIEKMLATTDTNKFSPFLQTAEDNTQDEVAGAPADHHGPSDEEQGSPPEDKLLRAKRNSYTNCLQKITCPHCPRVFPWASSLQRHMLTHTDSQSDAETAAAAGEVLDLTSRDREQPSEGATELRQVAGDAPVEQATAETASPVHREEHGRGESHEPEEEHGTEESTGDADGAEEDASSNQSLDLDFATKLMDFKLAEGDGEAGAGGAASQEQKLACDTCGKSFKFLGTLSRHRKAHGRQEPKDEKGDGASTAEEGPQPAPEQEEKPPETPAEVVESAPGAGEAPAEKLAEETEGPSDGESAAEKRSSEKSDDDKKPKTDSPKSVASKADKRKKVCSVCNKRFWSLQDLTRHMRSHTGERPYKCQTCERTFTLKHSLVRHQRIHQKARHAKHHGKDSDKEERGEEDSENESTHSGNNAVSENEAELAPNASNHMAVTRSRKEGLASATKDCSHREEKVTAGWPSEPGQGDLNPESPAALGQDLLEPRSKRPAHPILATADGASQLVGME
UniProt O75695: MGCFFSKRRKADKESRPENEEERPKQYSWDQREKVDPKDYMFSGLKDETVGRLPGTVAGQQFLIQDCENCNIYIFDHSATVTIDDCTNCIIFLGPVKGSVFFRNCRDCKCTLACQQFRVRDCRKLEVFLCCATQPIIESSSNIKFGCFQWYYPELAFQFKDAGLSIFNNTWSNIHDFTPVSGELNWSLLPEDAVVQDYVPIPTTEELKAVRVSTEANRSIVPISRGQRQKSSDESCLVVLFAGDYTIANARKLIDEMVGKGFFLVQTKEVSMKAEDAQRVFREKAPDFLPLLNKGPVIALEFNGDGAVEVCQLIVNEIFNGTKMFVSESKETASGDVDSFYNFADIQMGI
UniProt Q86WX3: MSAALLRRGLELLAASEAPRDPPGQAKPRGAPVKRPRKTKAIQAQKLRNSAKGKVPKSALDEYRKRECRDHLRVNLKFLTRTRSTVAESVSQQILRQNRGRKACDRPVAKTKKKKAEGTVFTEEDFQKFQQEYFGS
UniProt Q96S38: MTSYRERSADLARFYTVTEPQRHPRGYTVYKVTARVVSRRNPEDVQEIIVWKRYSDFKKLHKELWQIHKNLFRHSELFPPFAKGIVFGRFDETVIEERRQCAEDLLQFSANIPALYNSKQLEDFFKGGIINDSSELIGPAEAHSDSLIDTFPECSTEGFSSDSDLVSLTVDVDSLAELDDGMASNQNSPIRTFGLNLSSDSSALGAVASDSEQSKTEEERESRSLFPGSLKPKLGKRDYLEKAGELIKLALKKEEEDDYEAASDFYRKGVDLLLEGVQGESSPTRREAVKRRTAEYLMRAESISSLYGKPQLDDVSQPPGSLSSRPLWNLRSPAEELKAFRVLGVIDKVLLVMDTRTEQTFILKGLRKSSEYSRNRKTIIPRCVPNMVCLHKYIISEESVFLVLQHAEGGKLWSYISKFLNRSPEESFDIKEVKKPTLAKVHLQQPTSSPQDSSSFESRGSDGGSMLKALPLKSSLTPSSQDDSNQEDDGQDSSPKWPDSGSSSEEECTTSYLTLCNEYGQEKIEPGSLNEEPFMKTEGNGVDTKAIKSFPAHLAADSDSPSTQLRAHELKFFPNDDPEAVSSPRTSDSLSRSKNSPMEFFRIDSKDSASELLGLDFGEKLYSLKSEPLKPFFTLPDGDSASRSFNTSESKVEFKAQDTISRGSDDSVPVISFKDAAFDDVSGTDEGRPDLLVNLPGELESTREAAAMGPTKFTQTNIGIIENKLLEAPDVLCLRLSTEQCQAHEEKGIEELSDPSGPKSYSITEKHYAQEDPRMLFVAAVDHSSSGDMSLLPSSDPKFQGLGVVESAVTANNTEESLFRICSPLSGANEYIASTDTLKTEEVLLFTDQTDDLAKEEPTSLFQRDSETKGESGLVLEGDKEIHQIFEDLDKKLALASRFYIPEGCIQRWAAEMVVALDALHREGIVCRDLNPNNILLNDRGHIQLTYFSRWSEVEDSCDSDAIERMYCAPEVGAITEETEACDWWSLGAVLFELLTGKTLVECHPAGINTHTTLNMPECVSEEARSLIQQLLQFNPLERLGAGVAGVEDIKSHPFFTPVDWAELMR
UniProt Q9H6T3, whole entry, looked up: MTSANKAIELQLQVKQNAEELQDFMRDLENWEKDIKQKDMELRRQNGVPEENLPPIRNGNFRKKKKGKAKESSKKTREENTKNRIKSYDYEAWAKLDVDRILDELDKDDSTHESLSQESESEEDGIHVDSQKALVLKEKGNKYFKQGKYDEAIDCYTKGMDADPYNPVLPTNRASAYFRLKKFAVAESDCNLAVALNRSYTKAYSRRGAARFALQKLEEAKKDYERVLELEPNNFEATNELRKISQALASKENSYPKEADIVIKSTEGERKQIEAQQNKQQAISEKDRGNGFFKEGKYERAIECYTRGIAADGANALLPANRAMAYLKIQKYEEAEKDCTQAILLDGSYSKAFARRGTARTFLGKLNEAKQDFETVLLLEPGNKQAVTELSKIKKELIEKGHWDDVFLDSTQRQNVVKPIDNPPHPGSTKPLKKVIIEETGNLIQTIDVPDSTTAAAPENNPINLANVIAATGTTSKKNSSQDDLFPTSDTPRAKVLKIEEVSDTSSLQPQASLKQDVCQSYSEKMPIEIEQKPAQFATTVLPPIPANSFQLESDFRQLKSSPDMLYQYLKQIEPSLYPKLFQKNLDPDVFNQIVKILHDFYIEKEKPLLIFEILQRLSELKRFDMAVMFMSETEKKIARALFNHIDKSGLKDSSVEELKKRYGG
UniProt O60942: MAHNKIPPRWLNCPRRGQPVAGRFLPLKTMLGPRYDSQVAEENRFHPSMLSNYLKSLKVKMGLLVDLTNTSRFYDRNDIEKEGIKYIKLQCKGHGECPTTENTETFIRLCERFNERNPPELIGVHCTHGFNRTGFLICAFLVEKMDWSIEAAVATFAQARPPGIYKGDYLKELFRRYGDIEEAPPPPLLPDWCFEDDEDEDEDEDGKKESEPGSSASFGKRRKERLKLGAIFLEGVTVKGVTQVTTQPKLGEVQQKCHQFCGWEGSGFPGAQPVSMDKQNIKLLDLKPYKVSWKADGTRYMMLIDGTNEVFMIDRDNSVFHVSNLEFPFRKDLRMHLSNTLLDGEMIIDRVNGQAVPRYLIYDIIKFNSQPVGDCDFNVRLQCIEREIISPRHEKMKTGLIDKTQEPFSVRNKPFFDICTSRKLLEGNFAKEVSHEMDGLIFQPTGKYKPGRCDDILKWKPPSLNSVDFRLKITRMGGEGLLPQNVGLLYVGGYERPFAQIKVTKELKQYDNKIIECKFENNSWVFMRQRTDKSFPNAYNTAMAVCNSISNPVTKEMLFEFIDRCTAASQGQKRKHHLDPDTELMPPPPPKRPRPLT
UniProt O43148, whole entry, looked up: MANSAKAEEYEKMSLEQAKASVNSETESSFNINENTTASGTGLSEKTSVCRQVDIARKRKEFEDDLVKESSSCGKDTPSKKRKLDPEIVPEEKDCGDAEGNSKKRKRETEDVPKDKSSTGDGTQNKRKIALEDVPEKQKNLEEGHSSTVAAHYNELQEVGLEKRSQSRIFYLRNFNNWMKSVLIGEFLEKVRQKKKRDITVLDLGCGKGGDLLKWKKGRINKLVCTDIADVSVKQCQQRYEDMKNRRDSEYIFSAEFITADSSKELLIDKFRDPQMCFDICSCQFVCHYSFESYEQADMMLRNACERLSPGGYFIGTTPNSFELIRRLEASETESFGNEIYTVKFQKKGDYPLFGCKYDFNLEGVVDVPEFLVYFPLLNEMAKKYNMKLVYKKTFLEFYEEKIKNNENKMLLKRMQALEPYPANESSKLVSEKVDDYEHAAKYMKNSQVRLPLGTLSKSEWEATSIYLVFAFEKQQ
UniProt Q7LG56, whole entry, looked up: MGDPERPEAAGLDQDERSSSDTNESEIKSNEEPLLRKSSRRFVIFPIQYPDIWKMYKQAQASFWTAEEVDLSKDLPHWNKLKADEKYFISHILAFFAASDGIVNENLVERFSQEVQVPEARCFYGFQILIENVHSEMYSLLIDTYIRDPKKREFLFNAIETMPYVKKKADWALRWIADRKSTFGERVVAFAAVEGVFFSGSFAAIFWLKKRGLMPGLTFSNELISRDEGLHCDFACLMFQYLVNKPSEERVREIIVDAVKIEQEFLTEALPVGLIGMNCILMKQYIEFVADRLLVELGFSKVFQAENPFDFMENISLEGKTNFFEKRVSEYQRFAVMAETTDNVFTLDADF
UniProt Q7L523, whole entry, looked up: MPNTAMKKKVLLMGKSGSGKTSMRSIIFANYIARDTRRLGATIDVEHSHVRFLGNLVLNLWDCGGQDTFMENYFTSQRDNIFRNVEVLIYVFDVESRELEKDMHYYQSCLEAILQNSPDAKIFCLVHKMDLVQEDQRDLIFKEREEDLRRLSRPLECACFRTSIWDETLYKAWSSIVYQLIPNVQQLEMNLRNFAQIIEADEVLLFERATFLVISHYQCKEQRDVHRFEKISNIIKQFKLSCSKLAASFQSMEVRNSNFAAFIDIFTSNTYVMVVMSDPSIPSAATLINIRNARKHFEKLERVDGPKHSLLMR
UniProt P04844: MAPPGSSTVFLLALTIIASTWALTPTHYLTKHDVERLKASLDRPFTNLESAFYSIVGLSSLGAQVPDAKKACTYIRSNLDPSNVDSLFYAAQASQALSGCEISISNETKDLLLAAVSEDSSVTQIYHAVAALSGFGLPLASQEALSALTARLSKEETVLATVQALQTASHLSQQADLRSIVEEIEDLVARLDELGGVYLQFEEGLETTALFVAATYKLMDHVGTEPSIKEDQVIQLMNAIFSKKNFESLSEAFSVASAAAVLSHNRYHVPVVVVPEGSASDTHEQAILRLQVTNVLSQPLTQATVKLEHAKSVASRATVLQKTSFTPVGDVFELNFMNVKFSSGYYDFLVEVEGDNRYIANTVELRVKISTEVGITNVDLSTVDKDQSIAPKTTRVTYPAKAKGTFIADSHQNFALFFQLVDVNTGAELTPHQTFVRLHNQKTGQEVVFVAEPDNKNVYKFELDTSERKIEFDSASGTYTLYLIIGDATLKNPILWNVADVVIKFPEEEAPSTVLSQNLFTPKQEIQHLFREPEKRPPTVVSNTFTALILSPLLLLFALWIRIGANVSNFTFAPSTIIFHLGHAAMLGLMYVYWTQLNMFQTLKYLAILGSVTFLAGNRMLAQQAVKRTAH

Columns and labels:
Test in all cases: log2 fold change, soluble protein after heating vs DMSO (PISA); higher = thermal stabilisation; K562 cells, 10 uM, 30 min; active = over 0.2 and 3.5 SD of the protein, either way, in both replicates (recomputed)
[1] = compound: CN1CCN(CCOc2cc(OC3CCOCC3)c3c(Nc4c(Cl)ccc5c4OCO5)ncnc3c2)CC1 [saracatinib]
Outline: (§1)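 K562 cells at 2×10^6 cells/mL were exposed to 10 μM compound for 30 min, then aliquots were heated for 3 min across 48°C-58°C, pooled, and extracted in PBS containing 0.5% NP-40 at 4°C. The supernatant after 21,000xg for 90 min was taken as soluble protein and measured by TMTpro 16plex LC-MS/MS with channel sums equalised. Thermal stability is reported relative to control samples, with values from duplicates. Fold changes are given on a log2 scale.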

[2] = compound: CN1CCN(c2nc(C3=C(c4c[nH]c5ccccc45)C(=O)NC3=O)c3ccccc3n2)CC1 [sotrastaurin]
Outline: as §1

[3] = compound: CN1CC[C@H](c2c(O)cc(O)c3c(=O)cc(-c4ccccc4Cl)oc23)[C@H](O)C1 [alvocidib]
Outline: as §1

[4] = compound: CN1CCc2c(c3ccccc3n2Cc2ccc(C(=O)NO)cc2)C1 [Tubastatin A]
Outline: as §1

[5] = compound: CNC(=O)C1=CC=CC=C1NC2=NC(=NC=C2Cl)NC3=C(C=C(C=C3)N4CCOCC4)OC
Outline: as §1

[6] = compound: CNC(=O)c1ccc(Nc2ncc(C(F)(F)F)c(NCc3nccnc3N(C)S(C)(=O)=O)n2)cc1 [defactinib]
Outline: as §1

[7] = compound: CNCc1ccc(-c2[nH]c3cc(F)cc4c3c2CCNC4=O)cc1 [rucaparib]
Outline: as §1

[8] = compound: CNc1nc(-c2ccc3c(N)n[nH]c3c2)cc(N2C[C@@H](C(=O)NC3CCCCC3)CC[C@H]2C)n1
Outline: as §1

[9] = compound: COC(=O)N[C@@H](C)CNc1nccc(-c2cn(C(C)C)nc2-c2cc(Cl)cc(NS(C)(=O)=O)c2F)n1 [encorafenib]
Outline: as §1

[10] = compound: COC(=O)[C@H](CCSC)NC(=O)C1=C(C=C(C=C1)NC[C@H](CS)N)C2=CC=CC=C2
Outline: as §1

Measured: log2 fold change

RPS27L (UniProt Q71UM5)
inactive: [1] -0.087 | [2] 0.025 | [3] 0.068 | [4] 0.026 | [5] 0.062 | [6] 0.099 | [7] 0.225 | [8] 0.088 | [9] 0.067 | [10] -0.02

RPL23 (UniProt P62829)
inactive: [1] -0.08 | [2] -0.012 | [3] 0.322 | [4] 0.1 | [5] 0.089 | [6] 0.338 | [7] 0.325 | [8] 0.115 | [9] 0.116 | [10] 0.044

RPLP2 (UniProt P05387)
inactive: [1] -0.048 | [2] -0.012 | [3] 0.434 | [4] 0.237 | [5] -0.002 | [6] 0.412 | [7] 0.336 | [8] 0.184 | [9] 0.203 | [10] -0.027

RREB1 isoform 2 (UniProt Q92766)
inactive: [1] -0.092 | [2] -0.097 | [3] 0.039 | [4] -0.17 | [5] -0.049 | [6] 0.065 | [7] 0.284 | [8] 0.041 | [9] 0.188 | [10] 0.235

Reprinted at random: 2 entries already listed.
RPS27L (UniProt Q71UM5)
inactive: [1] -0.087 | [2] 0.025 | [3] 0.068 | [4] 0.026 | [5] 0.062 | [6] 0.099 | [7] 0.225 | [8] 0.088 | [9] 0.067 | [10] -0.02

RREB1 isoform 2 (UniProt Q92766)
inactive: [1] -0.092 | [2] -0.097 | [3] 0.039 | [4] -0.17 | [5] -0.049 | [6] 0.065 | [7] 0.284 | [8] 0.041 | [9] 0.188 | [10] 0.235

The results go on.

RPL13A (UniProt P40429)
inactive: [1] -0.176 | [2] -0.123 | [3] 0.501 | [4] 0.222 | [5] 0.054 | [6] 0.662 | [7] 0.468 | [8] 0.259 | [9] 0.254 | [10] -0.059

RP2 (UniProt O75695)
inactive: [1] 0.083 | [2] -0.163 | [3] 0 | [4] 0.042 | [5] 0.037 | [6] -0.04 | [7] -0.059 | [8] -0.05 | [9] 0.037 | [10] -0.069

RPS19BP1 (UniProt Q86WX3)
inactive: [1] -0.048 | [2] -0.048 | [3] 0.242 | [4] 0.053 | [5] -0.046 | [6] 0.088 | [7] 0.222 | [8] 0.176 | [9] 0.167 | [10] -0.067

RPS6KC1 (UniProt Q96S38)
inactive: [1] -0.586 | [2] -0.053 | [3] -0.041 | [4] 0.022 | [5] -0.042 | [6] -0.084 | [7] 0.084 | [8] -0.411 | [9] -0.156 | [10] -0.038

RPSA (UniProt P08865)
inactive: [1] -0.005 | [2] 0.078 | [3] 0.099 | [4] 0.01 | [5] 0.129 | [6] 0.067 | [7] 0.053 | [8] 0.004 | [9] -0.015 | [10] 0.028

RPL28 (UniProt P46779)
inactive: [1] -0.162 | [2] -0.042 | [3] 0.481 | [4] 0.208 | [5] 0.094 | [6] 0.573 | [7] 0.471 | [8] 0.215 | [9] 0.241 | [10] 0.019

RPS28 (UniProt P62857)
inactive: [1] -0.066 | [2] 0.01 | [3] 0.114 | [4] -0.04 | [5] -0.021 | [6] 0.089 | [7] 0.233 | [8] 0.053 | [9] -0.068 | [10] 0.071

RPAP3 (UniProt Q9H6T3)
inactive: [1] -0.078 | [2] -0.075 | [3] -0.002 | [4] -0.007 | [5] 0.064 | [6] -0.04 | [7] 0.027 | [8] -0.052 | [9] 0.065 | [10] -0.006

RPS23 (UniProt P62266)
inactive: [1] -0.133 | [2] -0.042 | [3] 0.4 | [4] 0.135 | [5] 0.056 | [6] 0.539 | [7] 0.317 | [8] 0.156 | [9] 0.146 | [10] 0.053

RPL39P5 (UniProt Q59GN2)
inactive: [1] -0.073 | [2] 0.087 | [3] 0.283 | [4] 0.138 | [5] 0.005 | [6] 0.26 | [7] 0.325 | [8] 0.079 | [9] 0.106 | [10] 0.034

RPL3 (UniProt P39023)
inactive: [1] -0.17 | [2] -0.023 | [3] 0.456 | [4] 0.256 | [5] 0.045 | [6] 0.607 | [7] 0.436 | [8] 0.25 | [9] 0.247 | [10] -0.031

RNGTT (UniProt O60942)
inactive: [1] -0.079 | [2] -0.076 | [3] -0.131 | [4] 0.012 | [5] -0.005 | [6] -0.055 | [7] 0.012 | [8] 0.025 | [9] 0.11 | [10] -0.048

RPL35 (UniProt P42766)
inactive: [1] -0.127 | [2] -0.018 | [3] 0.293 | [4] 0.245 | [5] 0.047 | [6] 0.373 | [7] 0.355 | [8] 0.18 | [9] 0.194 | [10] -0.016

RPL32 (UniProt P62910)
inactive: [1] -0.127 | [2] -0.099 | [3] 0.385 | [4] 0.197 | [5] 0.046 | [6] 0.53 | [7] 0.416 | [8] 0.203 | [9] 0.193 | [10] -0.035

RPS17 (UniProt P08708)
inactive: [1] -0.044 | [2] 0.007 | [3] 0.16 | [4] 0.046 | [5] 0.058 | [6] 0.14 | [7] 0.16 | [8] 0.076 | [9] 0.031 | [10] 0.024

RPS7 (UniProt P62081)
inactive: [1] -0.091 | [2] 0.003 | [3] 0.212 | [4] 0.107 | [5] 0.075 | [6] 0.279 | [7] 0.231 | [8] 0.093 | [9] 0.073 | [10] -0.006

RNMT isoform 2 (UniProt O43148)
inactive: [1] -0.029 | [2] 0.049 | [3] 0.122 | [4] 0.007 | [5] 0.001 | [6] 0.03 | [7] 0.076 | [8] -0.027 | [9] 0.013 | [10] 0.011

RRM2B isoform 6 (UniProt Q7LG56)
inactive: [1] -0.086 | [2] 0.042 | [3] 0.056 | [4] 0.001 | [5] -0.034 | [6] -0.023 | [7] -0.009 | [8] -0.064 | [9] -0.022 | [10] 0.067

RPA2 isoform 3 (UniProt P15927)
inactive: [1] -0.107 | [2] 0.02 | [3] 0.001 | [4] 0.004 | [5] -0.053 | [6] -0.03 | [7] -0.014 | [8] -0.039 | [9] 0.01 | [10] 0.038

RPL26L1 (UniProt Q9UNX3)
inactive: [1] -0.104 | [2] -0.028 | [3] 0.386 | [4] 0.169 | [5] 0.096 | [6] 0.376 | [7] 0.407 | [8] 0.147 | [9] 0.116 | [10] -0.04

RRAGA (UniProt Q7L523)
inactive: [1] 0.118 | [2] -0.019 | [3] -0.145 | [4] -0.027 | [5] -0.02 | [6] -0.068 | [7] 0.006 | [8] 0.01 | [9] 0.002 | [10] 0.055

RPN2 (UniProt P04844)
inactive: [1] 0.011 | [2] 0.006 | [3] -0.003 | [4] 0.016 | [5] -0.01 | [6] 0.009 | [7] -0.027 | [8] -0.001 | [9] 0.052 | [10] 0

RNF25 (UniProt Q96BH1)
inactive: [1] -0.06 | [2] -0.028 | [3] -0.082 | [4] 0.101 | [5] -0.01 | [6] -0.072 | [7] -0.019 | [8] -0.061 | [9] 0.019 | [10] -0.015

RPL29 (UniProt P47914)
inactive: [1] -0.062 | [2] -0.077 | [3] 0.316 | [4] 0.148 | [5] -0.04 | [6] 0.431 | [7] 0.46 | [8] 0.17 | [9] 0.167 | [10] -0.054

RPL13 (UniProt P26373)
inactive: [1] -0.213 | [2] -0.004 | [3] 0.484 | [4] 0.261 | [5] 0.03 | [6] 0.656 | [7] 0.465 | [8] 0.208 | [9] 0.259 | [10] 0.052

RPL10A (UniProt P62906)
inactive: [1] -0.178 | [2] -0.011 | [3] 0.486 | [4] 0.263 | [5] 0.056 | [6] 0.641 | [7] 0.422 | [8] 0.262 | [9] 0.232 | [10] -0.024
